Laboratory results reported in PubChem BioAssay AID1508586 (ICCB-Longwood Screening Facility, Harvard Medical School, 2020).
Some of the results follow.

Assay: survival rescue of mitochondrial mutant cells in low glucose, primary screen, MELAS cybrids, Rieske KO mouse fibroblasts, CellTiter-Glo (AID 1508586);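 also: test concentration not given here; z relative to plate mean and SD of compound and empty wells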
Settings: MELAS cybrid survival, CellTiter-Glo 48 h, Rieske KO fibroblast survival, 72 h
Work on `NC(=O)Nc1ccc([As](=O)(O)O)cc1` yielded a z-score of -0.0587. Compound `C/C1=C2N=C(/C=C3N=C(/C(C)=C4\[N-][C@@](C)([C@@H]5N=C1[C@](C)(CCC(=O)NC[C@@H](C)OP(=O)([O-])O[C@H]1[C@@H](O)[C@@H](n6cnc7cc(C)c(C)cc76)O[C@@H]1CO)[C@H]5CC(N)=O)[C@@](C)(CC(N)=O)[C@@H]4CCC(N)=O)[C@@](C)(CC(N)=O)[C@@H]\3CCC(N)=O)C(C)(C)[C@@H]/2CCC(N)=O.[C-]#N.[Co+3]` has a z-score of -0.194. With `CC1=C2[N-][C@@H](C(CC(N)=O)[C@@]2(C)CCC(=O)NCC(C)OP(=O)([O-])OC2C(CO)OC(n3cnc4cc(C)c(C)cc43)C2O)[C@]2(C)N=C(C(C)=C3N=C(C=C4N=C1C(CCC(N)=O)C4(C)C)C(CCC(N)=O)[C@]3(C)CC(N)=O)C(CCC(N)=O)[C@]2(C)CC(N)=O.[C-]#N.[Co+3]` (stereo partly drawn) the z-score was -0.269.
